No constants are given. Whether binding was seen depends on the method and setting. In cells and extracts the contact can be indirect. Some binding calls cover weakened binding; strength is not graded here.
Target: TGF-β Receptor Type II (human (endogenous in MDA-MB-231)) (UniProt P37173)
Experiment: FRET or BRET; FRET signal in MDA-MB-231 cells on rigid and compliant substrates, Fn concentrations ranging from 0-50 μg/ml

The chains behind the UniProt entries cited, without tags or fusion partners. Residues count along the entry.
UniProt P37173, residues 23-567: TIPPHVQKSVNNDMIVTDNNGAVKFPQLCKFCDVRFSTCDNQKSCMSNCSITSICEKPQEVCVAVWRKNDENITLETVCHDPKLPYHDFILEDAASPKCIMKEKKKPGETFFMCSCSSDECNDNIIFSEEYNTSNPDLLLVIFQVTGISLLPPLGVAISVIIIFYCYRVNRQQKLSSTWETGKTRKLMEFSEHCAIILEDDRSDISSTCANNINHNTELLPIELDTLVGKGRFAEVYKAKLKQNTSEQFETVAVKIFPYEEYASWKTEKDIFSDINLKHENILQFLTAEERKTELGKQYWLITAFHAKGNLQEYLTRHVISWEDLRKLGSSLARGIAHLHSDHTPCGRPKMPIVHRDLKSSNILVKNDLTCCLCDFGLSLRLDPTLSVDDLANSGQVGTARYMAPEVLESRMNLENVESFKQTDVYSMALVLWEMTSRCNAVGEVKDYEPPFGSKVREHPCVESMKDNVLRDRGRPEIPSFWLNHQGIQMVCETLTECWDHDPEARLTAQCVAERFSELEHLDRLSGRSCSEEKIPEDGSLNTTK
UniProt P05106, residues 27-788: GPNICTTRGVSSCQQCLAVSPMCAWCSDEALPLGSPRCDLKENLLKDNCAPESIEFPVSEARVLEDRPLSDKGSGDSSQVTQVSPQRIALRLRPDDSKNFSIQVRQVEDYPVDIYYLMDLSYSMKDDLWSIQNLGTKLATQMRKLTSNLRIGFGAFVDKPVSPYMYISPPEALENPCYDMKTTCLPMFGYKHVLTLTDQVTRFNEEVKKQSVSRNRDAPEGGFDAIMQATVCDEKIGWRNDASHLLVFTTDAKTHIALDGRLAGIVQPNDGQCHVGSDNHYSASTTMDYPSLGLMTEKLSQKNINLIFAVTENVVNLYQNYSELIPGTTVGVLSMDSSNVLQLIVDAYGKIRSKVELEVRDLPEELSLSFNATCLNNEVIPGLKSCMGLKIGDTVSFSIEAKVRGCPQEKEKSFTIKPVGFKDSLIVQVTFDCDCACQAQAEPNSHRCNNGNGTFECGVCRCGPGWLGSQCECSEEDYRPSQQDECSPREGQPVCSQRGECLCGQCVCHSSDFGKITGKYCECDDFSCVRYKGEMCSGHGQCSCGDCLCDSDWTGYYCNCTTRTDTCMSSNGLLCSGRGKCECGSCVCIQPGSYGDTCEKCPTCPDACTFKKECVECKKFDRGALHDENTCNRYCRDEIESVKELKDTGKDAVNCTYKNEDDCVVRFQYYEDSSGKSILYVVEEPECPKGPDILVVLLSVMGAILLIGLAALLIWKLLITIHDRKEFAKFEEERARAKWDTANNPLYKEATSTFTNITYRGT

Integrin β3 (from UniProt P05106 27-788) (receptor)
binding: binds

Source: publication PMC4534584
